Laboratory results reported in patent publication US11230581B2, “Peptides and combination of peptides for use in immunotherapy against ovarian cancer and other cancers” (Immatics Biotechnologies GmbH, priority 2015, dated 2022).

Tested on: additional tumor types
Assay: LC-MS detection and over-presentation of the peptides on additional tumor types, cell lines and primary cultures
Design: species or system human
Conditions: for Other relevant organs/ cancerous diseases: Table 4A: additional tumor types on which the peptide was found, over-presented on more than 5% of measured tumor samples, or presented on more than 5% with ratio of geometric means tumor vs normal tissues larger than 3; for Additional organs/cancerous diseases: additional tumor types with over-presentation on more than 5% of the measured tumor samples, or presentation on more than 5% with ratio of geometric means tumor vs normal tissues larger than 3; for peptide additionally detected on tumor samples (positive/measured): sample set of FIG. 1A-D
[1] = cell lines and primary cultures
[2] = leukocytic leukemia cancers (FIG. 1D: leukemias)

**Q.** For “449 (KLAEGLDIQL; listed as Homo sapiens) [compound 449]”, which “Other relevant organs/ cancerous diseases” value is on record?
**A.** Its value is “SCLC, Colon, Rectum”.

**Q.** For “547 (TLDITPHTV; listed as Homo sapiens) [compound 547]”, which Additional organs/cancerous diseases is on record?
**A.** Its Additional organs/cancerous diseases is “Esophageal Cancer”.

**Q.** Which results are given for “336 (ILLTAIVQV; listed as Homo sapiens) [compound 336]”?
**A.** Other relevant organs/ cancerous diseases: BrCa, Esophageal Cancer; Additional organs/cancerous diseases: Melanoma

**Q.** “615 (VLPPDTDPA; listed as Homo sapiens) [compound 615]” was tested. Which Additional organs/cancerous diseases did it give?
**A.** Its Additional organs/cancerous diseases is “Melanoma, Esophageal Cancer”.

**Q.** What does the source list for “KLLNKIYEA (listed as Homo sapiens) [SEQ ID NO.: 620]”?
**A.** number of samples with detectable presentation of the peptide (brain cancers): 5; number of samples with detectable presentation of the peptide (breast cancers): 2; number of samples with detectable presentation of the peptide (cancer tissues, total): 27; number of samples with detectable presentation of the peptide [1]: 3; number of samples with detectable presentation of the peptide (esophageal cancers): 2; number of samples with detectable presentation of the peptide (lung cancers): 5; number of samples with detectable presentation of the peptide (lymph node cancers): 1; number of samples with detectable presentation of the peptide (myeloid cell cancer): 1; number of samples with detectable presentation of the peptide (prostate cancers): 3; number of samples with detectable presentation of the peptide (rectum cancers): 1; number of samples with detectable presentation of the peptide (urinary bladder cancers): 1; number of samples with detectable presentation of the peptide (uterus cancers): 1

**Q.** “559 (VTVPPGPSL; listed as Homo sapiens) [compound 559]” was tested. Which “Other relevant organs/ cancerous diseases” value did it give?
**A.** Its value is “Leukemia”.

**Q.** What about the Additional organs/cancerous diseases of the same substance?
**A.** Its Additional organs/cancerous diseases is “CLL, AML”.

**Q.** For “262 (LLWGDLIWL; listed as Homo sapiens) [compound 262]”, which “Other relevant organs/ cancerous diseases” value is on record?
**A.** The value was “Leukemia”.

**Q.** And the Additional organs/cancerous diseases?
**A.** The Additional organs/cancerous diseases was “CRC, PrC, CLL, Melanoma, AML”.

**Q.** Which results are given for “533 (RMVAEIQNV; listed as Homo sapiens) [compound 533]”?
**A.** Other relevant organs/ cancerous diseases: Leukemia, Esophageal Cancer; Additional organs/cancerous diseases: CLL, NHL

**Q.** With “534 (HLANIVERL; listed as Homo sapiens) [compound 534]” as the substance, how does the Additional organs/cancerous diseases read?
**A.** The Additional organs/cancerous diseases was “CLL”.

**Q.** “400 (SLLTEQDLWTV; listed as Homo sapiens) [compound 400]” was tested. Which “Other relevant organs/ cancerous diseases” value did it give?
**A.** The value was “Leukemia”.

**Q.** And the Additional organs/cancerous diseases?
**A.** Its Additional organs/cancerous diseases is “CLL”.

**Q.** With “260 (TLLEGPDPAELLL; listed as Homo sapiens) [compound 260]” as the substance, how does the Additional organs/cancerous diseases read?
**A.** Its Additional organs/cancerous diseases is “AML”.

**Q.** For “389 (LLADVTHLL; listed as Homo sapiens) [compound 389]”, which “Other relevant organs/ cancerous diseases” value is on record?
**A.** Its value is “Brain Cancer, Endometrium”.

**Q.** And the Additional organs/cancerous diseases?
**A.** Its Additional organs/cancerous diseases is “Melanoma, AML”.

**Q.** With “287 (FLNEFFLNV; listed as Homo sapiens) [compound 287]” as the substance, how does the “Other relevant organs/ cancerous diseases” value read?
**A.** The value was “NSCLC, Leukemia, Melanoma, Esophageal Cancer”.

**Q.** Which results are given for “628 (KLWEFFQVDV; listed as Homo sapiens) [compound 628]”?
**A.** Other relevant organs/ cancerous diseases: SCLC, Brain Cancer, HCC; Additional organs/cancerous diseases: Melanoma

**Q.** For “542 (RVWDISTVSSV; listed as Homo sapiens) [compound 542]”, which “Other relevant organs/ cancerous diseases” value is on record?
**A.** Its value is “SCLC, Leukemia, Melanoma, Esophageal Cancer”.

**Q.** And the Additional organs/cancerous diseases?
**A.** The Additional organs/cancerous diseases was “NSCLC, CLL, BRCA”.

**Q.** With “552 (GLLDLPFRVGV; listed as Homo sapiens) [compound 552]” as the substance, how does the “Other relevant organs/ cancerous diseases” value read?
**A.** Its value is “SCLC, Brain Cancer, Leukemia, Melanoma”.

**Q.** And the Additional organs/cancerous diseases?
**A.** Its Additional organs/cancerous diseases is “CLL, AML, NHL”.

**Q.** Which results are given for “ALLPLSPYL (listed as Homo sapiens) [SEQ ID NO.: 427]”?
**A.** peptide additionally detected on tumor samples (positive/measured) (breast cancers): 3/6; peptide additionally detected on tumor samples (positive/measured) (urinary bladder cancers): 1/4; peptide additionally detected on tumor samples (positive/measured) (uterine cancers): 3/4

**Q.** With “592 (RLLSAAENFL; listed as Homo sapiens) [compound 592]” as the substance, how does the “Other relevant organs/ cancerous diseases” value read?
**A.** The value was “SCLC, Brain Cancer, BrCa, Esophageal Cancer”.

**Q.** “493 (GLLGEKTQDLIGV; listed as Homo sapiens) [compound 493]” was tested. Which “Other relevant organs/ cancerous diseases” value did it give?
**A.** The value was “NSCLC, SCLC”.

**Q.** And the Additional organs/cancerous diseases?
**A.** The Additional organs/cancerous diseases was “CLL, Melanoma, Urinary Bladder Cancer, Uterine Cancer, Gallbladder Cancer and Bile Duct Cancer, HNSCC”.

**Q.** With “SLNDEVPEV (listed as Homo sapiens) [SEQ ID NO.: 157]” as the substance, how does the “peptide additionally found on tumor samples (positive/measured)” value (lymph node cancers, sample set of FIG. 1E-K) read?
**A.** Its value is 2/20.

**Q.** Which “Other relevant organs/ cancerous diseases” value does the source give for “535 (KLIAQNLEL; listed as Homo sapiens) [compound 535]” here?
**A.** The value was “Colon, Rectum”.

**Q.** What about the Additional organs/cancerous diseases of the same substance?
**A.** Its Additional organs/cancerous diseases is “AML, NHL, HNSCC”.

**Q.** What does the source list for “621 (VLMDRLPSLL; listed as Homo sapiens) [compound 621]”?
**A.** Other relevant organs/ cancerous diseases: Melanoma; Additional organs/cancerous diseases: CLL

**Q.** Which results are given for “268 (IAGPGLPDL; listed as Homo sapiens) [compound 268]”?
**A.** Other relevant organs/ cancerous diseases: NSCLC, RCC, BrCa; Additional organs/cancerous diseases: HCC, Uterine Cancer, NHL

**Q.** For “337 (HLLSELEAAPYL; listed as Homo sapiens) [compound 337]”, which Additional organs/cancerous diseases is on record?
**A.** Its Additional organs/cancerous diseases is “CLL”.

**Q.** Which results are given for “633 (ALSRVSVNV; listed as Homo sapiens) [compound 633]”?
**A.** Other relevant organs/ cancerous diseases: Melanoma, Esophageal Cancer; Additional organs/cancerous diseases: CLL

**Q.** “312 (IISDLTIAL; listed as Homo sapiens) [compound 312]” was tested. Which “Other relevant organs/ cancerous diseases” value did it give?
**A.** Its value is “SCLC, PC”.

**Q.** And the Additional organs/cancerous diseases?
**A.** The Additional organs/cancerous diseases was “NSCLC, CRC, BRCA, Melanoma, Esophageal Cancer, Uterine Cancer, Gallbladder Cancer and Bile Duct Cancer, NHL, HNSCC”.

**Q.** With “555 (YVLEGLKSV; listed as Homo sapiens) [compound 555]” as the substance, how does the “Other relevant organs/ cancerous diseases” value read?
**A.** Its value is “SCLC, Melanoma”.

**Q.** What about the Additional organs/cancerous diseases of the same substance?
**A.** Its Additional organs/cancerous diseases is “CRC, CLL, Esophageal Cancer, Urinary Bladder Cancer, Uterine Cancer, NHL, HNSCC”.

**Q.** Which Additional organs/cancerous diseases does the source give for “582 (TLCDVILMV; listed as Homo sapiens) [compound 582]” here?
**A.** The Additional organs/cancerous diseases was “Melanoma”.

**Q.** “VMNDRLYAI (listed as Homo sapiens) [SEQ ID NO.: 587]” was tested. Which “number of samples with detectable presentation of the peptide” value (“number of samples” below) (cancer tissues, total) did it give?
**A.** Its value is 38.

**Q.** What about the “number of samples” value [2] of the same substance?
**A.** Its value is 14.

**Q.** What about the “number of samples” value (lymph node cancers) of the same substance?
**A.** The value was 10.

**Q.** And the “number of samples” value (prostate cancers)?
**A.** Its value is 1.

**Q.** And the “number of samples” value (uterus cancers)?
**A.** Its value is 4.

**Q.** With “SLVESHLSDQLTL (listed as Homo sapiens) [SEQ ID NO.: 463]” as the substance, how does the “number of samples” value (bile duct cancers) read?
**A.** The value was 1.

**Q.** And the “number of samples” value (brain cancers)?
**A.** The value was 2.

**Q.** What about the “number of samples” value (breast cancers) of the same substance?
**A.** Its value is 2.

**Q.** And the “number of samples” value (cancer tissues, total)?
**A.** Its value is 32.

**Q.** And the “number of samples” value [1]?
**A.** The value was 1.

**Q.** What about the “number of samples” value (head and neck cancers) of the same substance?
**A.** Its value is 2.

**Q.** What about the “number of samples” value [2] of the same substance?
**A.** Its value is 3.

**Q.** What about the “number of samples” value (liver cancers) of the same substance?
**A.** The value was 1.

**Q.** And the “number of samples” value (lung cancers)?
**A.** The value was 8.

**Q.** What about the “number of samples” value (lymph node cancers) of the same substance?
**A.** Its value is 3.

**Q.** What about the “number of samples” value (skin cancers) of the same substance?
**A.** The value was 2.

**Q.** What about the “number of samples” value (urinary bladder cancers) of the same substance?
**A.** The value was 2.

**Q.** And the “number of samples” value (uterus cancers)?
**A.** Its value is 1.

**Q.** What does the source list for “364 (LLQNEQFEL; listed as Homo sapiens) [compound 364]”?
**A.** Other relevant organs/ cancerous diseases: RCC; Additional organs/cancerous diseases: Urinary Bladder Cancer, Uterine Cancer, Gallbladder Cancer and Bile Duct Cancer

**Q.** Which Additional organs/cancerous diseases does the source give for “304 (MTLGQIYYL; listed as Homo sapiens) [compound 304]” here?
**A.** Its Additional organs/cancerous diseases is “NSCLC, SCLC, CRC, HCC, BRCA, Melanoma, Urinary Bladder Cancer, Uterine Cancer, Gallbladder Cancer and Bile Duct Cancer, AML, HNSCC”.
